Our source for the Metabollic rate values is publication PMC10619556, “Comprehensive Evaluation System for Post-Metabolic Activity of Potential Thyroid-Disrupting Chemicals” (Journal of Microbiology and Biotechnology, 2023).

Structures can show the parent of a compound that is named as a salt.

The nature of the data set: In vitro metabolic reaction using rat liver S9 fraction with LC-MS / GC-MS metabolic profiling. The following applies: rat liver S9, phase I+II reaction vs inactivated S9 control; BDE28 and 4,4'-DIDBP by GC-MS, others by LC-MS.

The molecule `CCCCc1oc2ccccc2c1C(=O)c1cc(I)c(OCCN(CC)CC)c(I)c1` [Amiodarone, amiodarone hydrochloride] registered a Metabollic rate of 70%.
